Literature values in patent US20200368322A1, “METHODS OF IDENTIFYING AND USING AGENTS FOR TREATING DISEASES ASSOCIATED WITH INTESTINAL BARRIER DYSFUNCTION” (Yeda Research and Development Co. Ltd., priority 2018, published 2020).

Settings: metabolite abundance, diseased vs healthy mice (Levy M. et al. Cell 2015); cited from earlier work
In the case of NCCc1c[nH]c2ccccc12 [tryptamine], the diseased/healthy ratio is given as 0.08.
For N[C@@H](CCO)C(=O)O [L-homoserine], the diseased/healthy ratio is given as 0.49.
For NCCc1c[nH]cn1 [histamine], the diseased/healthy ratio is given as 44.18.
In the case of NCCCCN [putrescine], the diseased/healthy ratio is given as 145.2.
For CC(=O)N1CCC[C@H]1C(=O)O [N-acetylproline], the diseased/healthy ratio is given as 16.58.
For NCCCNCCCCNCCCN [spermine], the diseased/healthy ratio is listed as 15.7.
